Results are given in words; binding and its absence hold for the method and conditions named. Binding seen in cells or lysates may run through a third protein. Some binding calls cover weakened binding; strength is not graded here. Where a sequence is shown, tags or fusion partners need not be part of it.

Amino acid sequences for entries named in this document (tags omitted). A change or cut given only in a name is not applied to a line headed by its entry.
UniProt Q8NEB9: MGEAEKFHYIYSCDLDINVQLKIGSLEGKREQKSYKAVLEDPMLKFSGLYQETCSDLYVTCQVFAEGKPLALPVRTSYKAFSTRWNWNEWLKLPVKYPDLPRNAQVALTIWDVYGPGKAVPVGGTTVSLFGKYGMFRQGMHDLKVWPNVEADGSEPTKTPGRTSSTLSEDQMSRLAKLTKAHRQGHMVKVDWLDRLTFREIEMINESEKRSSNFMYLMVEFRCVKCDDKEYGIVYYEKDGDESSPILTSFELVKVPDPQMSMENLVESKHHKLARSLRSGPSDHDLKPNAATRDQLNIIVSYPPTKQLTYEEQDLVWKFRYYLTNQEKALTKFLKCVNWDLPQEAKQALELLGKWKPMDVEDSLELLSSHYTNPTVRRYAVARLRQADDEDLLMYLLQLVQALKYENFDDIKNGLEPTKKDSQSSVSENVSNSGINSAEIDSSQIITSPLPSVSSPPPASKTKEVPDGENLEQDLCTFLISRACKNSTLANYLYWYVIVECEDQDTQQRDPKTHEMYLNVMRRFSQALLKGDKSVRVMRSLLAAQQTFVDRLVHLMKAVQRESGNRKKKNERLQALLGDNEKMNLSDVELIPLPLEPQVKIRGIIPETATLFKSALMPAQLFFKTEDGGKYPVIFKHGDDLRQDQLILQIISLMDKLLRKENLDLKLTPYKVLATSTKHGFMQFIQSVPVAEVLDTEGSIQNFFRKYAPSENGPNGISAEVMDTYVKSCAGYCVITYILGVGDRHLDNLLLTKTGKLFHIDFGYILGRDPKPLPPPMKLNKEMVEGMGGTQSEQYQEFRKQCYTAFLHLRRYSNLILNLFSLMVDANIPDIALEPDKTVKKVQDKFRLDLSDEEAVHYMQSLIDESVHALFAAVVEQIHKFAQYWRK
UniProt O88597: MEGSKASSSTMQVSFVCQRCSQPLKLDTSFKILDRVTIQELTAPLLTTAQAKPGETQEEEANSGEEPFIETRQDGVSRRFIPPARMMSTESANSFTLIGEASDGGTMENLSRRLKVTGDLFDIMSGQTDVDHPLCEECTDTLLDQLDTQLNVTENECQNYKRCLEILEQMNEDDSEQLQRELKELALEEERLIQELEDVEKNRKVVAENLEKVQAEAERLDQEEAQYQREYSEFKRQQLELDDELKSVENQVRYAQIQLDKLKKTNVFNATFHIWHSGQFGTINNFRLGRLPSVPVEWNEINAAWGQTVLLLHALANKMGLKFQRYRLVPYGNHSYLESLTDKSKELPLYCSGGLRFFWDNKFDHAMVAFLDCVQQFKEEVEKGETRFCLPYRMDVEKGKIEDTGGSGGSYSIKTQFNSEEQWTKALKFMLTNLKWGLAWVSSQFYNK

In test [1] the target is Beclin 1-Vps34/PtdIns3K complex (endogenous, HEK 293T cells) (human) (UniProt Q8NEB9). The test is described as follows: co-IP with anti-GFP antibody from transfected HEK 293T cells.
Test [2] has as its target FLAG-Beclin 1-CE (FLAG-tagged Beclin 1 mutant containing coiled-coil and evolutionarily conserved domains) (mouse) (UniProt O88597). The test is described as follows: co-IP with anti-GFP antibody from co-transfected HEK 293T cells; anti-FLAG blot.

B1: Rubicon-EGFP (full-length mouse Rubicon tagged with EGFP at the C-terminus) (protein, not shown: large carriers)
chain: MRPEGAGMDLGGGDGERLLEKSRREHWQLLGNLKTTVEGLVSANCPNVWSKYGGLERLCRDMQNILYHGLIHDQVCCRQADYWQFVKDIRWLSPHSALHVEKFISLHESDQSDTDSVSERAVAELWLQHSLQCHCLSAQLRPLLGDRQYIRKFYTETAFLLSDAHVTAMLQCLEAVEQNNPRLLAQIDASMFARKQESPLLVTKSQSLTALPGSTYTPPASYAQHSYFGSSSSLQSMPQSSHSSERRSTSFSLSGPSWQPQEDRECLSPAETQTTPAPLPSDSTLAQDSPLTAQEMSDSTLTSPLEASWVSSQNDSPSDVSEGPEYLAIGNPAPHGRTASCESHSSNGESSSSHLFSSSSSQKLESAASSLGDQEEGRQSQAGSVLRRSSFSEGQTAPVASGTKKSHIRSHSDTNIASRGAAEGGQYLCSGEGMFRRPSEGQSLISYLSEQDFGSCADLEKENAHFSISESLIAAIELMKCNMMSQCLEEEEVEEEDSDREIQELKQKIRLRRQQIRTKNLLPAYRETENGSFRVTSSSSQFSSRDSTQLSESGSAEDADDLEIQDADIRRSAVSNGKSSFSQNLSHCFLHSTSAEAVAMGLLKQFEGMQLPAASELEWLVPEHDAPQKLLPIPDSLPISPDDGQHADIYKLRIRVRGNLEWAPPRPQIIFNVHPAPTRKIAVAKQNYRCAGCGIRTDPDYIKRLRYCEYLGKYFCQCCHENAQMVVPSRILRKWDFSKYYVSNFSKDLLLKIWNDPLFNVQDINSALYRKVKLLNQVRLLRVQLYHMKNMFKTCRLAKELLDSFDVVPGHLTEDLHLYSLSDLTATKKGELGPRLAELTRAGAAHVERCMLCQAKGFICEFCQNEEDVIFPFELHKCRTCEECKACYHKTCFKSGRCPRCERLQARRELLAKQSLESYLSDYEEEPTEALALEATVLETT
Regarding B1, the binding result in test [1] and in test [2] was “binds” each time.

Source of the values: patent US20120041175A1.
